These are yes or no findings as the source states them, for the method shown. In cells and extracts the contact can be indirect. A yes stands for co-enrichment or nearness to the bait. Other partners may have been found. For some of these results: Tags and fused reporters may be left off the sequences shown.

Sequences of proteins named here, by UniProt entry; tags and fusion partners are left off.
UniProt Q8WXI9: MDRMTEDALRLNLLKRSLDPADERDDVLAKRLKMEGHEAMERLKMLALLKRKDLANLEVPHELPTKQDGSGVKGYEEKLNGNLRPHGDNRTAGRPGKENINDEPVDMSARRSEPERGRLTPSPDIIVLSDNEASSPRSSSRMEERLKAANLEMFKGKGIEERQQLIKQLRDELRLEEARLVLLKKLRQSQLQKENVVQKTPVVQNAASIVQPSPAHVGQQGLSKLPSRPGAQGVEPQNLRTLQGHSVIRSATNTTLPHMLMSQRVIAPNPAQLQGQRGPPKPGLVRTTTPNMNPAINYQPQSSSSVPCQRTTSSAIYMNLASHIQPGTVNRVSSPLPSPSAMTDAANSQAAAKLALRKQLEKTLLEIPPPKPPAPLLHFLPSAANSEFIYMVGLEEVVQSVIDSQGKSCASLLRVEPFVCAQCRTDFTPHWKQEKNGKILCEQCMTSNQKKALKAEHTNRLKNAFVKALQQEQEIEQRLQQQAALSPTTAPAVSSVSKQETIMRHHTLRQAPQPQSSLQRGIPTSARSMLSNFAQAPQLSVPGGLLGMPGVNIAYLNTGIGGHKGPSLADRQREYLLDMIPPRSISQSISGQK

Common to all, as to assay: affinity purification with mass spectrometry
One experiment has as its target T1, FLAG-CDK2AP1 (UniProt O14519).
T1 sequence: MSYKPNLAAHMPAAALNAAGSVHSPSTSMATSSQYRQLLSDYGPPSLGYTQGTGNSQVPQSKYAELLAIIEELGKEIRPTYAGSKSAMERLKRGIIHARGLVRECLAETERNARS

In experiment [1] the target is FLAG-GATAD2B (full-length) (UniProt Q8WXI9).
Experiment [2] deals with T2, FLAG-ADNP (bait of the PD-MS) (UniProt Q9H2P0).
T2 sequence: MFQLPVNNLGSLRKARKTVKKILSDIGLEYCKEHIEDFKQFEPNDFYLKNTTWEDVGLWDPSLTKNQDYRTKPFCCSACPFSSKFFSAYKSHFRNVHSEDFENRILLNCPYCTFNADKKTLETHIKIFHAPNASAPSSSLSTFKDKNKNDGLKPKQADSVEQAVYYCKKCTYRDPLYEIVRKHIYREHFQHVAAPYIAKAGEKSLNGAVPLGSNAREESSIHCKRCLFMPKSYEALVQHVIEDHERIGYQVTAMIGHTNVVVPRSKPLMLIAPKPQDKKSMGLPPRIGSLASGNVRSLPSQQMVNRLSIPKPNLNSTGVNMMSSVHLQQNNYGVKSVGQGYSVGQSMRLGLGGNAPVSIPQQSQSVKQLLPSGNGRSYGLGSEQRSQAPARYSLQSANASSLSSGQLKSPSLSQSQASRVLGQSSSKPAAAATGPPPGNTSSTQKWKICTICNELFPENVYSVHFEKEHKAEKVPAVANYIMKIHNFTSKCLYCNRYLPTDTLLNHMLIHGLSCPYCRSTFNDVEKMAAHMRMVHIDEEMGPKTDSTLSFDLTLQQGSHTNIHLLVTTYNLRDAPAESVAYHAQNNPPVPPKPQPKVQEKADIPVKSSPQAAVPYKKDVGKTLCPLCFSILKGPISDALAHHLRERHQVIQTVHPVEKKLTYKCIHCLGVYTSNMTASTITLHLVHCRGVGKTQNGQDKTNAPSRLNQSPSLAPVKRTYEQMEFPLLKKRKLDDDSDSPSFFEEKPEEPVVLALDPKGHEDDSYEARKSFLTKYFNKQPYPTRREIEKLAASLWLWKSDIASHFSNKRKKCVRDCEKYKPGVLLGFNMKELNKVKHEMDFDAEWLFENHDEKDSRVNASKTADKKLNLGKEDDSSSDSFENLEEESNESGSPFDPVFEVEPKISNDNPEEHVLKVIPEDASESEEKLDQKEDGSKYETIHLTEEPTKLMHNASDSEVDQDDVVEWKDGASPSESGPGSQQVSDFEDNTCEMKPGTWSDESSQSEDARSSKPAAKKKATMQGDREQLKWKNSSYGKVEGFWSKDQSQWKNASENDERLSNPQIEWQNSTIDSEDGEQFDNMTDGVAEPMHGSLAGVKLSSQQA

B1: TBL1X (protein, UniProt O60907 1-577)
chain: MTELAGASSSCCHRPAGRGAMQSVLHHFQRLRGREGGSHFINTSSPRGEAKMSITSDEVNFLVYRYLQESGFSHSAFTFGIESHISQSNINGTLVPPAALISILQKGLQYVEAEISINEDGTVFDGRPIESLSLIDAVMPDVVQTRQQAFREKLAQQQASAAAAAAAATAAATAATTTSAGVSHQNPSKNREATVNGEENRAHSVNNHAKPMEIDGEVEIPSSKATVLRGHESEVFICAWNPVSDLLASGSGDSTARIWNLNENSNGGSTQLVLRHCIREGGHDVPSNKDVTSLDWNTNGTLLATGSYDGFARIWTEDGNLASTLGQHKGPIFALKWNRKGNYILSAGVDKTTIIWDAHTGEAKQQFPFHSAPALDVDWQNNTTFASCSTDMCIHVCRLGCDRPVKTFQGHTNEVNAIKWDPSGMLLASCSDDMTLKIWSMKQEVCIHDLQAHNKEIYTIKWSPTGPATSNPNSNIMLASASFDSTVRLWDIERGVCTHTLTKHQEPVYSVAFSPDGKYLASGSFDKCVHIWNTQSGNLVHSYRGTGGIFEVCWNARGDKVGASASDGSVCVLDLRK
For B1, the binding entry with FLAG-CDK2AP1 was “binds”.

B2: BEND3 (protein, UniProt Q5T5X7 1-828)
chain: MNSTEFTEDVEEVLKSITVKVETEAEDAALDCSVNSRTSEKHSVDSVLTALQDSSKRKQLVSDGLLDSVPGVKRRRLIPEALLAGMRNRENSSPCQGNGEQAGRGRSLGNVWPGEEEPCNDATTPSYKKPLYGISHKIMEKKNPPSGDLLNVYELFEKANASNSPSSLRLLNEPQKRDCGSTGAGTDNDPNIYFLIQKMFYMLNTLTSNMSQLHSKVDLLSLEVSRIKKQVSPTEMVAKFQPPPEYQLTAAELKQIVDQSLSGGDLACRLLVQLFPELFSDVDFSRGCSACGFAAKRKLESLHLQLIRNYVEVYYPSVKDTAVWQAECLPQLNDFFSRFWAQREMEDSQPSGQVASFFEAEQVDPGHFLDNKDQEEALSLDRSSTIASDHVVDTQDLTEFLDEASSPGEFAVFLLHRLFPELFDHRKLGEQYSCYGDGGKQELDPQRLQIIRNYTEIYFPDMQEEEAWLQQCAQRINDELEGLGLDAGSEGDPPRDDCYDSSSLPDDISVVKVEDSFEGERPGRRSKKIWLVPIDFDKLEIPQPDFEVPGADCLLSKEQLRSIYESSLSIGNFASRLLVHLFPELFTHENLRKQYNCSGSLGKKQLDPSRIKLIRHYVQLLYPRAKNDRVWTLEFVGKLDERCRRRDTEQRRSYQQQRKVHVPGPECRDLTSYAINPERFREEFEGPPLPPERSSKDFCKIPLDELVVPSPDFPVPSPYLLSDKEVREIVQQSLSVGNFAARLLVRLFPELFTAENLRLQYNHSGACNKKQLDPTRLRLIRHYVEAVYPVEKMEEVWHYECIPSIDERCRRPNRKKCDILKKAKKVEK
Turning to B2, in experiment [1], the binding entry is recorded as “binds”.

B3: ZMYM2 (protein, UniProt Q9UBW7 1-1377)
chain: MDTSSVGGLELTDQTPVLLGSTAMATSLTNVGNSFSGPANPLVSRSNKFQNSSVEDDDDVVFIEPVQPPPPSVPVVADQRTITFTSSKNEELQGNDSKITPSSKELASQKGSVSETIVIDDEEDMETNQGQEKNSSNFIERRPPETKNRTNDVDFSTSSFSRSKVNAGMGNSGITTEPDSEIQIANVTTLETGVSSVNDGQLENTDGRDMNLMITHVTSLQNTNLGDVSNGLQSSNFGVNIQTYTPSLTSQTKTGVGPFNPGRMNVAGDVFQNGESATHHNPDSWISQSASFPRNQKQPGVDSLSPVASLPKQIFQPSVQQQPTKPVKVTCANCKKPLQKGQTAYQRKGSAHLFCSTTCLSSFSHKPAPKKLCVMCKKDITTMKGTIVAQVDSSESFQEFCSTSCLSLYEDKQNPTKGALNKSRCTICGKLTEIRHEVSFKNMTHKLCSDHCFNRYRMANGLIMNCCEQCGEYLPSKGAGNNVLVIDGQQKRFCCQSCVSEYKQVGSHPSFLKEVRDHMQDSFLMQPEKYGKLTTCTGCRTQCRFFDMTQCIGPNGYMEPYCSTACMNSHKTKYAKSQSLGIICHFCKRNSLPQYQATMPDGKLYNFCNSSCVAKFQALSMQSSPNGQFVAPSDIQLKCNYCKNSFCSKPEILEWENKVHQFCSKTCSDDYKKLHCIVTYCEYCQEEKTLHETVNFSGVKRPFCSEGCKLLYKQDFARRLGLRCVTCNYCSQLCKKGATKELDGVVRDFCSEDCCKKFQDWYYKAARCDCCKSQGTLKERVQWRGEMKHFCDQHCLLRFYCQQNEPNMTTQKGPENLHYDQGCQTSRTKMTGSAPPPSPTPNKEMKNKAVLCKPLTMTKATYCKPHMQTKSCQTDDTWRTEYVPVPIPVPVYIPVPMHMYSQNIPVPTTVPVPVPVPVFLPAPLDSSEKIPAAIEELKSKVSSDALDTELLTMTDMMSEDEGKTETTNINSVIIETDIIGSDLLKNSDPETQSSMPDVPYEPDLDIEIDFPRAAEELDMENEFLLPPVFGEEYEEQPRPRSKKKGAKRKAVSGYQSHDDSSDNSECSFPFKYTYGVNAWKHWVKTRQLDEDLLVLDELKSSKSVKLKEDLLSHTTAELNYGLAHFVNEIRRPNGENYAPDSIYYLCLGIQEYLCGSNRKDNIFIDPGYQTFEQELNKILRSWQPSILPDGSIFSRVEEDYLWRIKQLGSHSPVALLNTLFYFNTKYFGLKTVEQHLRLSFGTVFRHWKKNPLTMENKACLRYQVSSLCGTDNEDKITTGKRKHEDDEPVFEQIENTANPSRCPVKMFECYLSKSPQNLNQRMDVFYLQPECSSSTDSPVWYTSTSLDRNTLENMLVRVLLVKDIYDKDNYELDEDTD
B3: the binding entry in experiment [2] is recorded as “binds”.

B4: ZMYM3 (protein, UniProt Q14202 1-1370)
chain: MDPSDFPSPFDPLTLPEKPLAGDLPVDMEFGEDLLESQTAPTRGWAPPGPSPSSGALDLLDTPAGLEKDPGVLDGATELLGLGGLLYKAPSPPEVDHGPEGTLAWDAGDQTLEPGPGGQTPEVVPPDPGAGANSCSPEGLLEPLAPDSPITLQSPHIEEEETTSIATARRGSPGQEEELPQGQPQSPNAPPSPSVGETLGDGINSSQTKPGGSSPPAHPSLPGDGLTAKASEKPPERKRSERVRRAEPPKPEVVDSTESIPVSDEDSDAMVDDPNDEDFVPFRPRRSPRMSLRSSVSQRAGRSAVGTKMTCAHCRTPLQKGQTAYQRKGLPQLFCSSSCLTTFSKKPSGKKTCTFCKKEIWNTKDSVVAQTGSGGSFHEFCTSVCLSLYEAQQQRPIPQSGDPADATRCSICQKTGEVLHEVSNGSVVHRLCSDSCFSKFRANKGLKTNCCDQCGAYIYTKTGSPGPELLFHEGQQKRFCNTTCLGAYKKKNTRVYPCVWCKTLCKNFEMLSHVDRNGKTSLFCSLCCTTSYKVKQAGLTGPPRPCSFCRRSLSDPCYYNKVDRTVYQFCSPSCWTKFQRTSPEGGIHLSCHYCHSLFSGKPEVLDWQDQVFQFCCRDCCEDFKRLRGVVSQCEHCRQEKLLHEKLRFSGVEKSFCSEGCVLLYKQDFTKKLGLCCITCTYCSQTCQRGVTEQLDGSTWDFCSEDCKSKYLLWYCKAARCHACKRQGKLLETIHWRGQIRHFCNQQCLLRFYSQQNQPNLDTQSGPESLLNSQSPESKPQTPSQTKVENSNTVRTPEENGNLGKIPVKTRSAPTAPTPPPPPPPATPRKNKAAMCKPLMQNRGVSCKVEMKSKGSQTEEWKPQVIVLPIPVPIFVPVPMHLYCQKVPVPFSMPIPVPVPMFLPTTLESTDKIVETIEELKVKIPSNPLEADILAMAEMIAEAEELDKASSDLCDLVSNQSAEGLLEDCDLFGPARDDVLAMAVKMANVLDEPGQDLEADFPKNPLDINPSVDFLFDCGLVGPEDVSTEQDLPRTMRKGQKRLVLSESCSRDSMSSQPSCTGLNYSYGVNAWKCWVQSKYANGETSKGDELRFGPKPMRIKEDILACSAAELNYGLAQFVREITRPNGERYEPDSIYYLCLGIQQYLLENNRMVNIFTDLYYLTFVQELNKSLSTWQPTLLPNNTVFSRVEEEHLWECKQLGVYSPFVLLNTLMFFNTKFFGLQTAEEHMQLSFTNVVRQSRKCTTPRGTTKVVSIRYYAPVRQRKGRDTGPGKRKREDEAPILEQRENRMNPLRCPVKFYEFYLSKCPESLRTRNDVFYLQPERSCIAESPLWYSVIPMDRSMLESMLNRILAVREIYEELGRPGEEDLD
As for B4, the binding entry in experiment [2] was “binds”.
